Measurements from patent US20240125775A1, “IMMOBILIZATION AND MAGNETIC EXTRACTION OF PATHOGENS AND PATHOGEN COMPONENTS” (priority 2020, published 2024).
Square brackets hold non-standard residues; d marks the D form. Ends that are not written are not given here. pS = N[C@@H](COP(=O)(O)O)C(=O)O

Experiment: Binding of peptide to particles (UV absorption at 280 nm)
Type: physicochemical
Settings: for peptide content after improved functionalization: SBA educt fourfold, reaction time doubled; for increase in peptide binding: compared to Karawacka et al. (2018)

**Q.** Which results are given for RKQGRVEILYRGSWGTVC [SPP19]?
**A.** peptide content after improved functionalization: 0.082 μmol peptides/mg Fe; increase in peptide binding: 42%

**Q.** Which “peptide content after improved functionalization” value does the source give for RKQGRVEVLYRASWGTVC [SPP04] here?
**A.** Its value is “over 0.085 μmol peptides/mg Fe”.

**Q.** What about the “increase in peptide binding” value of the same substance?
**A.** The value was 37%.

**Q.** Which “peptide bound to SPION^HAp via C-terminal phosphoserine” value (borate buffer pH 8.5, 24h, 700 rpm, 25° C.) does the source give for RKQGRVEVLYRASWGTV[pS] [SPPpS] here?
**A.** The value was 0.03 μmol/mg Fe.
